Data as given in PubChem BioAssay AID504784 (Drosophila RNAi Screening Center, 2011).
Screen: 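Fly genes whose silencing alters how much lipid cells keep in droplets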 (primary screen). System: Drosophila Kc167 embryonic cells. Knock-down reagent: long dsRNA against Drosophila genes, about 250 ng dsRNA per well. Time to read-out: 4 days. Challenge: cells fed 400 µM oleic acid bound to BSA. Measurement: 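Microscope images give a droplet-to-nucleus area ratio, taken as log and converted to a screen-wide B-score; higher values mean greater lipid storage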. Reading the numbers: droplet/nuclear area B-score: higher = more stored lipid (overstorage).
The deposit covers about 17,000 reagents; this is an unselected part of those that have a named target and a result. 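Each column is one replicate's B-score; the combined score over replicates was not deposited, so single values may mislead.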 Not all columns of the deposit are shown. No sequences are given here.

IPIP [DRSC02164] | droplet/nuclear area B-score, replicate 1 = 1.98
CG12708 [DRSC19490] | droplet/nuclear area B-score, replicate 1 = -1.99
CG7778 [DRSC03067] | droplet/nuclear area B-score, replicate 1 = 0.654
CG10584 [DRSC11624] | droplet/nuclear area B-score, replicate 1 = -1.63
CG32081 [DRSC09861] | droplet/nuclear area B-score, replicate 1 = 0.721
Ndf [DRSC02775] | droplet/nuclear area B-score, replicate 1 = -0.0737
CG10005 [DRSC14172] | droplet/nuclear area B-score, replicate 1 = -0.218
heca [DRSC16964] | droplet/nuclear area B-score, replicate 1 = 2.71
heca [DRSC22990] | droplet/nuclear area B-score, replicate 1 = 1.17
Obp57c [DRSC06384] | droplet/nuclear area B-score, replicate 1 = -1.5
Hsp26 [DRSC11189] | droplet/nuclear area B-score, replicate 1 = -0.582
CG15676 [DRSC04267] | droplet/nuclear area B-score, replicate 1 = -0.494
CG5846 [DRSC02904] | droplet/nuclear area B-score, replicate 1 = 1.65
Pif2 [DRSC12525] | droplet/nuclear area B-score, replicate 1 = 0.697
CG2127 [DRSC06821] | droplet/nuclear area B-score, replicate 1 = -0.0186
CG5087 [DRSC10479] | droplet/nuclear area B-score, replicate 1 = 0.215
CG30369 [DRSC21996] | droplet/nuclear area B-score, replicate 1 = 0.897
CG7381 [DRSC16238] | droplet/nuclear area B-score, replicate 1 = -0.0173
Tsp42A [DRSC04862] | droplet/nuclear area B-score, replicate 1 = -0.109
CG7179 [DRSC03020] | droplet/nuclear area B-score, replicate 1 = -0.683
Rga [DRSC12364] | droplet/nuclear area B-score, replicate 1 = 1.52
tup [DRSC03627] | droplet/nuclear area B-score, replicate 1 = 0.382
CG33463 [DRSC22915] | droplet/nuclear area B-score, replicate 1 = -1.16
Tsp42Ep [DRSC06871] | droplet/nuclear area B-score, replicate 1 = -1.31
CG13220 [DRSC06342] | droplet/nuclear area B-score, replicate 1 = 0.476
Cul6 [DRSC09830] | droplet/nuclear area B-score, replicate 1 = -0.503
CG2246 [DRSC15433] | droplet/nuclear area B-score, replicate 1 = -1.32
side-IV [DRSC14833] | droplet/nuclear area B-score, replicate 1 = 0.828
MAN1 [DRSC04342] | droplet/nuclear area B-score, replicate 1 = -0.0577
Mlh1 [DRSC07473] | droplet/nuclear area B-score, replicate 1 = -0.157
CG11379 [DRSC18629] | droplet/nuclear area B-score, replicate 1 = 2.39
CG1077 [DRSC12146] | droplet/nuclear area B-score, replicate 1 = 0.0791
ng4 [DRSC18805] | droplet/nuclear area B-score, replicate 1 = -0.786
CG12170 [DRSC12199] | droplet/nuclear area B-score, replicate 1 = 2.28
CG12594 [DRSC14532] | droplet/nuclear area B-score, replicate 1 = 1.8
Abcd3 [DRSC19488] | droplet/nuclear area B-score, replicate 1 = 1.24
upd2 [DRSC19969] | droplet/nuclear area B-score, replicate 1 = -1.81
Rpn10 [DRSC11876] | droplet/nuclear area B-score, replicate 1 = 0.635
CG30178 [DRSC21911] | droplet/nuclear area B-score, replicate 1 = 3.83
pk [DRSC06178] | droplet/nuclear area B-score, replicate 1 = -1.17
pk [DRSC07664] | droplet/nuclear area B-score, replicate 1 = -0.122
pk [DRSC22156] | droplet/nuclear area B-score, replicate 1 = 5.1

Part of the list above, reformatted.
Target gene	DRSC id	droplet/nuclear area B-score, replicate 1
CG12170	DRSC12199	2.28
CG12594	DRSC14532	1.8
Abcd3	DRSC19488	1.24
upd2	DRSC19969	-1.81
Rpn10	DRSC11876	0.635
CG30178	DRSC21911	3.83
